This passage reports binding signal results from paper PMC7862700.

By UniProt entry, the sequences of proteins in these tests, tags left out. Where a name states a change or a piece, a line headed by the entry shows the natural chain unless it says otherwise.
UniProt P32519: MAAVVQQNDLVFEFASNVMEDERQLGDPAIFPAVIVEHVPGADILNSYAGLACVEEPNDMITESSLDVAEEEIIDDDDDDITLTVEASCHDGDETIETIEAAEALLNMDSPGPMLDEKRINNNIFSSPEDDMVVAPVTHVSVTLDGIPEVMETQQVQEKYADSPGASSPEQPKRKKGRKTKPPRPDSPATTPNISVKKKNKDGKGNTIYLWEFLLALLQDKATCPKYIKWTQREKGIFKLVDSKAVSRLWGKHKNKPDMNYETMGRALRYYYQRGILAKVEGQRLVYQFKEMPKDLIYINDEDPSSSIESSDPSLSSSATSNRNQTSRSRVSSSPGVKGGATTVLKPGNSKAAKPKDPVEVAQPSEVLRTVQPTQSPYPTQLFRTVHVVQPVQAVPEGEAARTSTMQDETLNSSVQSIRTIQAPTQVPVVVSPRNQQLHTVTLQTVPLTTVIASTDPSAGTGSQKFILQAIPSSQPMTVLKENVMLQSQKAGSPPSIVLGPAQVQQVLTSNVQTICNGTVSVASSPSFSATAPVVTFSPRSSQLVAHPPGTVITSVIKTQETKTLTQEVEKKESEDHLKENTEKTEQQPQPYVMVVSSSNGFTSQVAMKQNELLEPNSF
UniProt P50549: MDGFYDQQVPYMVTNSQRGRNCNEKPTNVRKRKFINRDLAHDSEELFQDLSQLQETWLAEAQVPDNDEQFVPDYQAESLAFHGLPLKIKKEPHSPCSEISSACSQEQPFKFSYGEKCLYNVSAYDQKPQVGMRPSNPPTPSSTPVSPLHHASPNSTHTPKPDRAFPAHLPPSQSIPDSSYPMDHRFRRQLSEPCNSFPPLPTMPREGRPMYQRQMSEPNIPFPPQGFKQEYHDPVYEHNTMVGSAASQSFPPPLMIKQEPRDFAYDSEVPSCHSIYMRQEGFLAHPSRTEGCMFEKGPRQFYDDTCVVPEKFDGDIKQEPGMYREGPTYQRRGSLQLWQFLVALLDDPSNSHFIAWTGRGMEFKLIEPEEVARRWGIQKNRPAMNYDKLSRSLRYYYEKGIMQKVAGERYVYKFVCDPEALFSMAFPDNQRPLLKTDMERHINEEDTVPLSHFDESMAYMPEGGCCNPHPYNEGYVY

Assay in all cases: DAPPL (digital affinity profiling via proximity ligation, sequencing)
What all share (details): 10 mM Tris-HCl pH 7.5, 50 mM NaCl, 1 mM DTT, 4% glycerol, room temperature, 30 min; GST-TFs on glutathione beads, 16-mer random dsDNA library, 0.1% …; high values mean tight binding; double strand, one strand shown; scale: fold enrichment (6-mer frequency, TF over GST control)

In one assay the target is T1, ERG (UniProt P11308).
T1 sequence: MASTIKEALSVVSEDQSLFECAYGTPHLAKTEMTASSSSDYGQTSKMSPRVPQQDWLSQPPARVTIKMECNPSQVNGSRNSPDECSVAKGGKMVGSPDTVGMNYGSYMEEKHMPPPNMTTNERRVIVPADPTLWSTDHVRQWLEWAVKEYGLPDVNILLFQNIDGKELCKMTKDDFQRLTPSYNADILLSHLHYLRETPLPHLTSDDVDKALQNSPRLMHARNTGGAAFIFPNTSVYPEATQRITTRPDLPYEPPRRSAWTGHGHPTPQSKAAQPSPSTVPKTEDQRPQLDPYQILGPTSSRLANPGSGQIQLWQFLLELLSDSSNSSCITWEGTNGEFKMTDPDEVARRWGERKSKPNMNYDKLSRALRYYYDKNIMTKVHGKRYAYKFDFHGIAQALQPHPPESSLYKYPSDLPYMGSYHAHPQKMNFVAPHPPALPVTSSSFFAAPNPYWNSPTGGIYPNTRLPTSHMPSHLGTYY

A further assay concerns the target ELF1 (UniProt P32519).
A further assay has as its target T2, ELK4 (UniProt P28324-2).
T2 sequence: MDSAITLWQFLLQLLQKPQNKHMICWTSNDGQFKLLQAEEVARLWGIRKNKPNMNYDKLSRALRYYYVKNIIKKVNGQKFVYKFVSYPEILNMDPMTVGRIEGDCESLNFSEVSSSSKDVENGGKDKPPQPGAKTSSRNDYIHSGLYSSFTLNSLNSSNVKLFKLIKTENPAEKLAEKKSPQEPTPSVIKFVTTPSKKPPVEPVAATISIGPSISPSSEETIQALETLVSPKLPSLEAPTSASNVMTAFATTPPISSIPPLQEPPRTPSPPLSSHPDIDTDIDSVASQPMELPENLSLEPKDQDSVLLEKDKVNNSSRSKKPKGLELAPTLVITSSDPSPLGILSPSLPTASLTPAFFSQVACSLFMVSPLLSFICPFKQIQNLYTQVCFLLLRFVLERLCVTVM

Another assay addresses T3, ETV4 (UniProt P43268).
T3 sequence: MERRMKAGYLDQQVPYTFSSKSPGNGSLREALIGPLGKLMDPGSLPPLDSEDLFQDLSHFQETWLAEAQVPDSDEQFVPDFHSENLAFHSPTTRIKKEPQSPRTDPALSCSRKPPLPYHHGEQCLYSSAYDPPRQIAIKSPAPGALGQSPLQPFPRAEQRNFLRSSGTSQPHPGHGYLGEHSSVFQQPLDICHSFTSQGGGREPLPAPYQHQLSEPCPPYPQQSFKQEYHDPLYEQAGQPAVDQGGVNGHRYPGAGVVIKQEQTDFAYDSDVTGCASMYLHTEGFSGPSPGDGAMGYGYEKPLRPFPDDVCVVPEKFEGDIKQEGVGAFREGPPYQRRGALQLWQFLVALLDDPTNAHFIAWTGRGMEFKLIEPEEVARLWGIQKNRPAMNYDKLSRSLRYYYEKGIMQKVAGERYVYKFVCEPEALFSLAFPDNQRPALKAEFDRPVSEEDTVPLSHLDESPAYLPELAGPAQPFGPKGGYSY

Another assay addresses ETV1 (UniProt P50549).
A further assay concerns the target T4, ERF (UniProt P50548).
T4 sequence: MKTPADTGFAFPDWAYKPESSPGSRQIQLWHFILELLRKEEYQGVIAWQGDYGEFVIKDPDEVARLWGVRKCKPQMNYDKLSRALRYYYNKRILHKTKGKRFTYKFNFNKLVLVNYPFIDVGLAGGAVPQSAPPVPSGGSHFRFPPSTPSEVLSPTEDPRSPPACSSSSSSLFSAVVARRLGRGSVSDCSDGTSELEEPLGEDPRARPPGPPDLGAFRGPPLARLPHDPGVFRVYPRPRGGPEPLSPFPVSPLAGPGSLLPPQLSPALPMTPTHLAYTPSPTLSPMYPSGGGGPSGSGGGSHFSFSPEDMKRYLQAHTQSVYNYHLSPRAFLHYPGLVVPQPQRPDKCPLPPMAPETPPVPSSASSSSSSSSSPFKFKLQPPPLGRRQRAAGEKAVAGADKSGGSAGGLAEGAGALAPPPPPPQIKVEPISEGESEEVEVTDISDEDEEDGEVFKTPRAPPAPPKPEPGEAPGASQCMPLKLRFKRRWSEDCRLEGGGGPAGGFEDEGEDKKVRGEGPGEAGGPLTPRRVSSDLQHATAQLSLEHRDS

The list shows a part of the results, in another mix than the full data. For part of these data: At the low end of the ranking the order means little. The list shows a part of the results. For part of these data: The source does not settle which construct or isoform was used.

For the sequence GGACTA, the binding signal in the assay with ERG amounted to 0.84; with ELF1, 0.861; in the assay with ELK4 it was 0.825; with ETV4 it was 0.867; with ETV1, 0.857; with ERF, 0.848.
Turning to CGCAAG, the binding signal with ERG came out at 0.799; with ELF1, 0.847; with ELK4 it was 0.849; in the assay with ETV4, 0.794; with ETV1, 0.782; in the assay with ERF, 0.803.
Turning to ACAGAC, the binding signal in the assay with ERG was determined as 0.834; in the assay with ELF1, 0.79; with ELK4 it was 0.918; with ETV4, 0.854; with ETV1 it was 0.848; with ERF, 0.782.
For ATCAGG, the binding signal in the assay with ERG is 0.926; with ELF1, 0.95; with ELK4 it was 0.99; with ETV4, 0.91; with ETV1 it was 0.885; with ERF it was 0.87.
GGTCCG: the binding signal with ERG amounted to 0.842; with ELF1 it was 0.758; in the assay with ELK4 it was 0.736; with ETV4 it was 0.79; with ETV1, 0.864; with ERF it was 0.729.
As for GGGAGA, the binding signal came out at 0.354 with ERG; 0.337 in the assay with ELF1; 0.297 with ELK4; 0.304 with ETV4; 0.332 with ETV1; 0.344 with ERF.
Take AGCGCG: the binding signal in the assay with ERG was 0.789; with ELF1, 0.793; with ELK4, 0.751; in the assay with ETV4 it was 0.796; in the assay with ETV1 it was 0.872; with ERF it was 0.862.
On to CGAGCG, for which the binding signal was determined as 0.96 in the assay with ERG; 0.878 with ELF1; 0.891 with ELK4; 0.898 with ETV4; 0.963 with ETV1; 0.939 with ERF.
Consider TTGTGA, for which the binding signal was 0.784 with ERG; 0.824 with ELF1; 0.87 with ELK4; 0.794 with ETV4; 0.712 with ETV1; 0.744 with ERF.
AAGCGT: the binding signal came to 0.92 in the assay with ERG; 0.877 in the assay with ELF1; 0.928 with ELK4; 0.802 with ETV4; 0.889 with ETV1; 0.974 in the assay with ERF.
In the case of TGTGTA, the binding signal stood at 0.838 in the assay with ERG; 0.819 with ELF1; 0.881 in the assay with ELK4; 0.925 with ETV4; 0.857 in the assay with ETV1; 0.979 in the assay with ERF.
As to AGCGAG, the binding signal was determined as 0.617 with ERG; 0.658 with ELF1; 0.574 with ELK4; 0.629 with ETV4; 0.656 with ETV1; 0.637 with ERF.
In the case of ACGGTC, the binding signal with ERG came to 0.702; in the assay with ELF1, 0.727; with ELK4, 0.694; in the assay with ETV4, 0.748; with ETV1, 0.816; with ERF it was 0.812.
GTCGAT: the binding signal was 0.7 with ERG; 0.674 with ELF1; 0.726 with ELK4; 0.675 in the assay with ETV4; 0.714 with ETV1; 0.663 with ERF.
Regarding GCCCGT, the binding signal in the assay with ERG stood at 0.636; with ELF1 it was 0.654; with ELK4, 0.606; in the assay with ETV4 it was 0.643; with ETV1, 0.622; with ERF, 0.602.
With CAGCGT, the binding signal is 0.822 in the assay with ERG; 0.773 in the assay with ELF1; 0.975 in the assay with ELK4; 0.782 in the assay with ETV4; 0.84 in the assay with ETV1; 0.791 with ERF.
With TGAGTA, the binding signal came to 0.459 with ERG; 0.44 with ELF1; 0.469 in the assay with ELK4; 0.413 in the assay with ETV4; 0.458 in the assay with ETV1; 0.457 with ERF.
Turning to GCATAG, the binding signal with ERG came to 0.801; in the assay with ELF1 it was 0.749; with ELK4 it was 0.766; with ETV4 it was 0.85; with ETV1 it was 0.775; in the assay with ERF it was 0.844.
TGTGAA: the binding signal worked out at 0.794 with ERG; 0.834 in the assay with ELF1; 0.86 with ELK4; 0.808 in the assay with ETV4; 0.941 in the assay with ETV1; 0.779 in the assay with ERF.
Turning to ACCAGG, the binding signal was 0.73 in the assay with ERG; 0.722 with ELF1; 0.736 with ELK4; 0.729 in the assay with ETV4; 0.776 with ETV1; 0.788 with ERF.
Take GGCCAA: the binding signal with ERG came out at 0.814; with ELF1, 0.856; in the assay with ELK4, 0.768; with ETV4 it was 0.839; in the assay with ETV1, 0.837; in the assay with ERF, 0.835.
Regarding GCGAGT, the binding signal with ERG was found to be 0.54; in the assay with ELF1, 0.573; with ELK4 it was 0.541; with ETV4 it was 0.528; with ETV1 it was 0.593; with ERF, 0.577.
Regarding AGGACA, the binding signal with ERG is 0.846; with ELF1, 0.838; in the assay with ELK4, 0.793; with ETV4 it was 0.862; with ETV1, 0.801; with ERF, 0.792.
For the sequence CTGTCG, the binding signal in the assay with ERG is 0.55; with ELF1, 0.555; with ELK4 it was 0.567; with ETV4, 0.584; with ETV1 it was 0.57; in the assay with ERF, 0.604.
With TCGGCG, the binding signal in the assay with ERG is 0.487; with ELF1, 0.496; with ELK4, 0.577; with ETV4 it was 0.503; in the assay with ETV1, 0.514; in the assay with ERF, 0.545.
Regarding TCGGTA, the binding signal in the assay with ERG turned out to be 0.597; in the assay with ELF1 it was 0.66; in the assay with ELK4 it was 0.631; with ETV4, 0.593; with ETV1, 0.619; in the assay with ERF it was 0.614.
Regarding GTTCGG, the binding signal in the assay with ERG was determined as 0.612; with ELF1 it was 0.65; in the assay with ELK4 it was 0.658; with ETV4, 0.645; in the assay with ETV1, 0.568; in the assay with ERF, 0.68.
As for GCAGAG, the binding signal with ERG came out at 0.595; in the assay with ELF1, 0.664; with ELK4, 0.754; with ETV4, 0.695; with ETV1 it was 0.619; with ERF it was 0.605.
Regarding GCGTGC, the binding signal in the assay with ERG is 0.827; with ELF1, 0.836; in the assay with ELK4 it was 0.92; with ETV4, 0.776; with ETV1, 0.863; with ERF, 0.805.
Take AGGCAA: the binding signal with ERG was found to be 0.728; with ELF1 it was 0.735; with ELK4 it was 0.738; in the assay with ETV4 it was 0.712; in the assay with ETV1, 0.745; with ERF, 0.617.
